Source: the supplement of paper PMC10849652
Some of the results follow.

The chains behind the UniProt entries cited, without tags or fusion partners. Where a name states a change or a piece, a line headed by the entry shows the natural chain unless it says otherwise.
UniProt P04424, whole entry, looked up: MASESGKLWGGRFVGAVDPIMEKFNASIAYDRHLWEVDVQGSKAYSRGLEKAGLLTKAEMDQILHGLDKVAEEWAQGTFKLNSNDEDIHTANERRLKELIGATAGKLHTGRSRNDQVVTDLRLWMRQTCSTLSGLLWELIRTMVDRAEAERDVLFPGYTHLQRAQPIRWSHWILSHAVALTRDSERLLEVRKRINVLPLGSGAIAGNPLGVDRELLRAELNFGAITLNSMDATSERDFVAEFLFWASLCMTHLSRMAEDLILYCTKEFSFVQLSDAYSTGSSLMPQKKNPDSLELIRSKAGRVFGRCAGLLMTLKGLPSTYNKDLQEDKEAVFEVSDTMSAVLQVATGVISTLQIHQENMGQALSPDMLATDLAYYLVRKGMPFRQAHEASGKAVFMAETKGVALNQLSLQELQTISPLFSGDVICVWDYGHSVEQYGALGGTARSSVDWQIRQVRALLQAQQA
UniProt Q7L266: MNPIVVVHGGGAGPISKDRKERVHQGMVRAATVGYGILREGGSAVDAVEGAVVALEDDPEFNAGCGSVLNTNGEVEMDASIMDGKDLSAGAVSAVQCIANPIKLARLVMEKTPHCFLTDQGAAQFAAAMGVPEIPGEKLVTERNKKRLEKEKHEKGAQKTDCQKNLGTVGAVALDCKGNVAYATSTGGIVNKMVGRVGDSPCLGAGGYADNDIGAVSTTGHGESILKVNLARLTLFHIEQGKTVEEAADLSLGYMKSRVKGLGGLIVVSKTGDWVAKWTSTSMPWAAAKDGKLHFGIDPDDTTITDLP
UniProt P08243: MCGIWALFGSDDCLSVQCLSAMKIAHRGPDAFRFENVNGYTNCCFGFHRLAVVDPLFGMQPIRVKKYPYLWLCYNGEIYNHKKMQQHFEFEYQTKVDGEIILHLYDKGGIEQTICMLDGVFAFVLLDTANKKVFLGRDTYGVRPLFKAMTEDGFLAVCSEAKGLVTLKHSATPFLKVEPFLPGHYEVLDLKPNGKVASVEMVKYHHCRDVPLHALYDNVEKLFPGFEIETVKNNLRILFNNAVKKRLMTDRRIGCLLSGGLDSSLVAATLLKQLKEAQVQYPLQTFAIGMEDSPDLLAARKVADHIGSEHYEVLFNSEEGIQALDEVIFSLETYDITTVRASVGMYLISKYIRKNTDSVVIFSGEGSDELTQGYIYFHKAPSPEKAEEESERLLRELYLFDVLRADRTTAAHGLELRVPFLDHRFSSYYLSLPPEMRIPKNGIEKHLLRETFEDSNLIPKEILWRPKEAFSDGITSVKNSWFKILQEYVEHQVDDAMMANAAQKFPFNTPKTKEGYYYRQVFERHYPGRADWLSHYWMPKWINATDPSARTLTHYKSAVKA
UniProt Q8NCR0: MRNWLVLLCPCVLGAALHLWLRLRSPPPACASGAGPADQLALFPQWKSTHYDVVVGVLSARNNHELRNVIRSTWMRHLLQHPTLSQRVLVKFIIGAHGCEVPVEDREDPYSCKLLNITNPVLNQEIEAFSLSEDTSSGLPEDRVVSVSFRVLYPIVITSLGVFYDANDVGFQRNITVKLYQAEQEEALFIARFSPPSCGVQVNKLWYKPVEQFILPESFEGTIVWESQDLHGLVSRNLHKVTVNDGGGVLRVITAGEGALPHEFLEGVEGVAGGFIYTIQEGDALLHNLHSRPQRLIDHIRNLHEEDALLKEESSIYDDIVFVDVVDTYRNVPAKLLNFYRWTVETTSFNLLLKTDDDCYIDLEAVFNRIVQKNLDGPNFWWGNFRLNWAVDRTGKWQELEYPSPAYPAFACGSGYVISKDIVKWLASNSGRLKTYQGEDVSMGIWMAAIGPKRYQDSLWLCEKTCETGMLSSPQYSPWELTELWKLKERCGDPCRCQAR
UniProt Q96L58: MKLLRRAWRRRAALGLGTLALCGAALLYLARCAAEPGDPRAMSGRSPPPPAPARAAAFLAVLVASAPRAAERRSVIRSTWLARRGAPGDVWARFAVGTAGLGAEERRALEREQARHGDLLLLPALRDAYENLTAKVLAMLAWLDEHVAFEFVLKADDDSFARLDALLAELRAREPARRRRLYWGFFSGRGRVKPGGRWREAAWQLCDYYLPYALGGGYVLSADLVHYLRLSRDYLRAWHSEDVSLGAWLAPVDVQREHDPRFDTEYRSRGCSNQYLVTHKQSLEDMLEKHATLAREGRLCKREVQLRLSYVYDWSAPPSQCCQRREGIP
UniProt Q6UW56: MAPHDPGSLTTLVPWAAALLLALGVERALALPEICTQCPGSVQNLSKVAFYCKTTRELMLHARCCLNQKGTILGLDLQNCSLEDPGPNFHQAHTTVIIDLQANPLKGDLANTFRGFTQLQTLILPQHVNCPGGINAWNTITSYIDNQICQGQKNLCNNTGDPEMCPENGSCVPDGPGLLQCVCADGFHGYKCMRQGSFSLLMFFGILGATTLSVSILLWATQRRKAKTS
UniProt Q6P4H8: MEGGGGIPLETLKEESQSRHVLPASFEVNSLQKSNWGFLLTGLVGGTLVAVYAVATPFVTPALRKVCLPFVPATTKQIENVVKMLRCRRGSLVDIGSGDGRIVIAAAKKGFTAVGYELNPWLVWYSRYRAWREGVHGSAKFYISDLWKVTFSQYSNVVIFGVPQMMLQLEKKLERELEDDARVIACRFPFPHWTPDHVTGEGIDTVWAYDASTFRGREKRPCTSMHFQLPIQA
UniProt P18846: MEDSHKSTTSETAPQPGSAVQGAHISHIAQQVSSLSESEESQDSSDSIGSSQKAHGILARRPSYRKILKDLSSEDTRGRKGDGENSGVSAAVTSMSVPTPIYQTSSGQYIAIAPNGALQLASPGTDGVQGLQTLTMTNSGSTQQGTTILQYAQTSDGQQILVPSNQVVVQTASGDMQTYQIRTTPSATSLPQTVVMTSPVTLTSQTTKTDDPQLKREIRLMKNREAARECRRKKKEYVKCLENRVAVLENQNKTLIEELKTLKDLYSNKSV
UniProt Q00973: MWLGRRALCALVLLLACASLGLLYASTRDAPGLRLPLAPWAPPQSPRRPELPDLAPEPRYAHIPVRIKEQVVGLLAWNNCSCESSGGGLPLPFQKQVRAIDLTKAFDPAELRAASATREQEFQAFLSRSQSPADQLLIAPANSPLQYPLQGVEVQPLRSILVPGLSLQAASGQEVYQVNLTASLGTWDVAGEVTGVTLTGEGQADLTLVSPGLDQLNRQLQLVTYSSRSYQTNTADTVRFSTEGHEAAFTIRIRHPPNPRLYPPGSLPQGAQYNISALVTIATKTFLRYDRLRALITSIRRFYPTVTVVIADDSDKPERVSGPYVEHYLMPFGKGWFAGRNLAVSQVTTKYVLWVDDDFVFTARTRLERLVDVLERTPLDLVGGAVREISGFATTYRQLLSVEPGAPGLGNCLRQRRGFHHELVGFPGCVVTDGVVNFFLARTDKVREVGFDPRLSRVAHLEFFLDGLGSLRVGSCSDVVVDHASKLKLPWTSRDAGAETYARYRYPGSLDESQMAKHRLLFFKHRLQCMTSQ
UniProt P0C7T5: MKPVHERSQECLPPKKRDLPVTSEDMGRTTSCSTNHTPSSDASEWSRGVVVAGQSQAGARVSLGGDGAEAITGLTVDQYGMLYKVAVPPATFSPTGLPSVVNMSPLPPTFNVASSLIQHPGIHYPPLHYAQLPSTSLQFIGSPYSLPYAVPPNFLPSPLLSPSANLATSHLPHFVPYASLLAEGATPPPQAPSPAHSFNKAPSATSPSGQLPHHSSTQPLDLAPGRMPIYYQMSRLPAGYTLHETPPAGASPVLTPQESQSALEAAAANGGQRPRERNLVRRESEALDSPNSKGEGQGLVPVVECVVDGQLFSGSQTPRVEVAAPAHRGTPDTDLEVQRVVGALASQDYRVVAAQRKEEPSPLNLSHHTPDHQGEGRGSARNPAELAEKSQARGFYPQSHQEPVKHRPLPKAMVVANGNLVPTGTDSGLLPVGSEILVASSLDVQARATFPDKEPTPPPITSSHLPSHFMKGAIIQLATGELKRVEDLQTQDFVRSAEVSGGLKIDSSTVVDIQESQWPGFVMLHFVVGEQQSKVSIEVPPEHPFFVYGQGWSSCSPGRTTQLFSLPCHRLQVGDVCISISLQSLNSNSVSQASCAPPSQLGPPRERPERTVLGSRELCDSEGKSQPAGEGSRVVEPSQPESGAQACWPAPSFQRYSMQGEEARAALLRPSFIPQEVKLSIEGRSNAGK
UniProt Q67FW5: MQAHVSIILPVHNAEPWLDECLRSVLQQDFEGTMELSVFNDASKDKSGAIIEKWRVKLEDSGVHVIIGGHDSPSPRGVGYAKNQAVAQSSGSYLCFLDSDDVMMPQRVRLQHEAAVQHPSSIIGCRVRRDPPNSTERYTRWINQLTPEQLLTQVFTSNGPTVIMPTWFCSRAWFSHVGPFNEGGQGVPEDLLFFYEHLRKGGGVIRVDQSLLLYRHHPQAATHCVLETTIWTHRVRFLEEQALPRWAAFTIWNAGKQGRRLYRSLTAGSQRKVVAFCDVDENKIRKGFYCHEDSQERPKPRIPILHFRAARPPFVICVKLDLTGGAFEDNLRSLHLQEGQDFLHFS
UniProt Q9Y4P1: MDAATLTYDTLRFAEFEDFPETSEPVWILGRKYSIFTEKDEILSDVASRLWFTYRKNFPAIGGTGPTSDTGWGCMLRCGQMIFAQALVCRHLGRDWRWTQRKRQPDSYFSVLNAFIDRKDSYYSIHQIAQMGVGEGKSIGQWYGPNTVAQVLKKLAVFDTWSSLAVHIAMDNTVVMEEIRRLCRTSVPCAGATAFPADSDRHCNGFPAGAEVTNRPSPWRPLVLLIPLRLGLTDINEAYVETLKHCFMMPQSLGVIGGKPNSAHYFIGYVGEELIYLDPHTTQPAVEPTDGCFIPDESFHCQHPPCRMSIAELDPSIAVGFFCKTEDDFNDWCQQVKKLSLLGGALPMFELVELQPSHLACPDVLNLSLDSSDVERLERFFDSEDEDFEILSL
UniProt Q8IXJ9: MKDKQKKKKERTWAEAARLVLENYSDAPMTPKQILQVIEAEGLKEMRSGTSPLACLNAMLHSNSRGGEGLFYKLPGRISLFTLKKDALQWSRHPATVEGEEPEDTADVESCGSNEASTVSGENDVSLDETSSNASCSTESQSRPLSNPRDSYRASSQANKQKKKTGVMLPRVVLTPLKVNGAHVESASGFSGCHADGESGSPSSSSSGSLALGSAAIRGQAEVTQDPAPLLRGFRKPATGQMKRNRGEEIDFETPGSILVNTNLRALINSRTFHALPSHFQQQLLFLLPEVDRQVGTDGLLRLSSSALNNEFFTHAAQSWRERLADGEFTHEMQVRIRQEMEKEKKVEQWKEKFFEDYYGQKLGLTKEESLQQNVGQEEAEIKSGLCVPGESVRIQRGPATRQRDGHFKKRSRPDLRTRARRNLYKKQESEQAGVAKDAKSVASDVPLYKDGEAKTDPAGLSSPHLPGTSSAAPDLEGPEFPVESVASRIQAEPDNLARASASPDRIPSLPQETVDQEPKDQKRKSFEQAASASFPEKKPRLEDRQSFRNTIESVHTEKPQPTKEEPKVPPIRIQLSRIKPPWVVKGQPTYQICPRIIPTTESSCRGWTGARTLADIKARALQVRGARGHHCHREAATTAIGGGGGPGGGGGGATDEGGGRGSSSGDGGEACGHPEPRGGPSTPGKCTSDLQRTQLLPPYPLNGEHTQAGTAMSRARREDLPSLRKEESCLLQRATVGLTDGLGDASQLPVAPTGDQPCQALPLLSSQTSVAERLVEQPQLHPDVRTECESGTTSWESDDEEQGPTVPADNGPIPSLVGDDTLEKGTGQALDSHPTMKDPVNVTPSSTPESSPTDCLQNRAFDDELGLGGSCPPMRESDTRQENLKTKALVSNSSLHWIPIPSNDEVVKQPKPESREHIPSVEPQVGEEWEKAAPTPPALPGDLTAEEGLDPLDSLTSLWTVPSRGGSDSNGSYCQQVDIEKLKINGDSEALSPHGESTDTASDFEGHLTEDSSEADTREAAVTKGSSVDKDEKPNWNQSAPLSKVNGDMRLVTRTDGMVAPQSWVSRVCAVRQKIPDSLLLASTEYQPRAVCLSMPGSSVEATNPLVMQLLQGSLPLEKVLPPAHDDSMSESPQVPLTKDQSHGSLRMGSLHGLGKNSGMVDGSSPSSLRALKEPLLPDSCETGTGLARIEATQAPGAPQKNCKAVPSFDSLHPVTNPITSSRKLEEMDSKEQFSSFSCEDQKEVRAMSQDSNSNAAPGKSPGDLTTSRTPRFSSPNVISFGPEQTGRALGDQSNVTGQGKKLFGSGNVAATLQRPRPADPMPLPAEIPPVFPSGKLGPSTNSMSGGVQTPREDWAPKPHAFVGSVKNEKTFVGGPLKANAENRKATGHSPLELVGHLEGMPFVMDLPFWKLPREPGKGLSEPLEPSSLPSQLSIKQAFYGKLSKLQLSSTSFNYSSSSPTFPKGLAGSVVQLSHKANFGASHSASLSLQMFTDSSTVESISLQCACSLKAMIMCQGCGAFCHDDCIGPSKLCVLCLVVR
UniProt P18847: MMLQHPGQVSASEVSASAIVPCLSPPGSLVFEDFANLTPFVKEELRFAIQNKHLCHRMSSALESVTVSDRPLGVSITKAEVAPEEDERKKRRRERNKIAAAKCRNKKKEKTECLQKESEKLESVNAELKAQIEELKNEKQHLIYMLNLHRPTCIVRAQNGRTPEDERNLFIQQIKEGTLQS

Legend:
Experiment in all cases: log2 fold change, soluble protein after heating vs DMSO (PISA); higher = thermal stabilisation; K562 lysate, 10 uM; active = over 0.2 and 3.5 SD of the protein, either way, in both replicates (recomputed)
[1] = compound: C1=CC=C(C=C1)[C@H](COC2=CC3=C(C=C2)NC(=O)N3)NC(=O)C4=CC=CN(C4=O)CC5=CC(=C(C=C5)F)F
Procedure, shortened: (§1)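 Thermal stability, expressed as log-two fold change relative to solvent controls, is given from duplicates. Crude K562 extract in PBS pH 7.4 with 1 mM MgCl2, at 1 mg/mL protein, was treated with 10 μM compound for 30 min and heated in aliquots for 3 min across 48°C-58°C. After pooling, adjustment to 0.5% NP-40 at 4°C and centrifugation at 21,000xg for 90 min, supernatant protein was measured by TMTpro 16plex LC-MS/MS with channel sums equalised.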

[2] = compound: CC1=C(SC2=C1C(=N[C@H](C3=NN=C(N32)C)CC(=O)N)C4=CC=C(C=C4)Cl)C
Procedure, shortened: as §1

[3] = compound: CC1=C2C(=CC=C1)N=C(N(C2=O)C3=CC=CC=C3C)CN4C=NC5=C(N=CN=C54)N
Procedure, shortened: as §1

[4] = compound: Cc1sc2c(c1C)C(c1ccc(Cl)cc1)=N[C@@H](CC(=O)OC(C)(C)C)c1nnc(C)n1-2
Procedure, shortened: as §1

[5] = compound: c1ccc([C@@H]2C[C@H]2NC2CCNCC2)cc1
Procedure, shortened: as §1

Measured: log2 fold change

B3GAT3 (UniProt O94766)
inactive: [1] -0.029 | [2] 0.083 | [3] 0.011 | [4] -0.001 | [5] -0.01

ATPAF1 (UniProt Q5TC12)
inactive: [1] 0.024 | [2] 0.054 | [3] 0.004 | [4] 0.038 | [5] 0.069

ATP5MF-PTCD1 (UniProt G3V325)
inactive: [1] 0.002 | [2] -0.023 | [3] 0 | [4] 0.078 | [5] -0.062

ATN1 (UniProt P54259)
inactive: [1] -0.007 | [2] 0.006 | [3] -0.028 | [4] 0.015 | [5] -0.077

ASL (UniProt P04424)
inactive: [1] -0.008 | [2] 0.023 | [3] 0.022 | [4] 0.005 | [5] 0.015

ASRGL1 (UniProt Q7L266)
inactive: [1] -0.008 | [2] -0.013 | [3] 0.007 | [4] -0.032 | [5] 0.02

ASPSCR1 (UniProt Q9BZE9)
inactive: [1] 0.013 | [2] -0.021 | [3] -0.006 | [4] 0.034 | [5] 0.001

ASNS (UniProt P08243)
inactive: [1] 0.006 | [2] 0.021 | [3] 0.027 | [4] 0.057 | [5] 0.033

ATXN2L (UniProt H3BUF6)
inactive: [3] 0.026 | [4] 0.042 | [5] 0.033

Quoted from the listing (three entries):
ASL (UniProt P04424)
inactive: [1] -0.008 | [2] 0.023 | [3] 0.022 | [4] 0.005 | [5] 0.015

ASRGL1 (UniProt Q7L266)
inactive: [1] -0.008 | [2] -0.013 | [3] 0.007 | [4] -0.032 | [5] 0.02

ASPSCR1 (UniProt Q9BZE9)
inactive: [1] 0.013 | [2] -0.021 | [3] -0.006 | [4] 0.034 | [5] 0.001

Next part:

ATP1B4 (UniProt Q9UN42)
inactive: [4] 0.058

ATXN7L2 (UniProt Q5T6C5)
inactive: [3] 0.138

B3GALNT2 (UniProt Q8NCR0)
inactive: [4] 0.154

B3GALT6 (UniProt Q96L58)
inactive: [1] 0.055 | [2] 0.041 | [4] 0.269

ASB1 (UniProt Q9Y576)
inactive: [1] -0.03 | [2] 0.035 | [3] 0.045 | [5] 0.07

ATRAID isoform 3 (UniProt Q6UW56)
inactive: [3] -0.018 | [4] -0.003

ATP2C1 isoform 3 (UniProt P98194)
inactive: [5] 0.011

ATE1 (UniProt O95260)
inactive: [1] 0 | [2] 0.07 | [5] -0.125

ATP6V0A1 (UniProt Q93050)
inactive: [1] 0.068 | [2] -0.019 | [4] -0.167 | [5] -0.032

AUH (UniProt Q13825)
inactive: [1] 0.034 | [2] 0 | [3] 0.129 | [4] -0.112 | [5] -0.009

ATPSCKMT (UniProt Q6P4H8)
inactive: [1] 0.111 | [2] -0.006 | [4] 0.023

ASPM (UniProt Q8IZT6)
inactive: [3] 0.021 | [4] 0.026 | [5] 0.026

ASB16 (UniProt Q96NS5)
inactive: [4] -0.05

ATF1 (UniProt P18846)
inactive: [1] 0.091 | [2] -0.03 | [4] -0.083 | [5] -0.086

ATP5F1A (UniProt K7ENJ4)
inactive: [5] -0.043

B4GALNT1 (UniProt Q00973)
inactive: [3] 0.039 | [4] -0.02 | [5] 0.127

ATG4D (UniProt Q86TL0)
inactive: [1] -0.011 | [2] 0.057 | [4] 0.041

ATXN1L (UniProt P0C7T5)
inactive: [1] -0.06 | [2] -0.206 | [3] 0.089 | [5] 0.012

ATP11C, A0A067XG54
inactive: [1] 0.246 | [2] -0.206 | [4] -0.044 | [5] -0.007

ATXN2 (UniProt F8WB06)
inactive: [4] -0.014

B3GNTL1 (UniProt Q67FW5)
inactive: [1] -0.13 | [2] 0 | [5] 0.092

ASXL2 (UniProt Q76L83)
inactive: [1] 0.017 | [2] 0.016 | [4] -0.187 | [5] 0.171

ATP1B1 (UniProt P05026)
inactive: [1] -0.003 | [2] 0.016 | [4] -0.008 | [5] -0.059

ATG4B (UniProt Q9Y4P1)
inactive: [1] 0.004 | [2] 0.034 | [3] 0.017 | [4] -0.002 | [5] 0.051

ASNSD1 (UniProt Q9NWL6)
inactive: [1] 0.122 | [2] -0.035 | [5] -0.119

ASS1 (UniProt P00966)
inactive: [1] -0.009 | [2] 0.026 | [4] 0.022 | [5] 0.037

ATP5F1B (UniProt F8W0P7)
inactive: [3] -0.155 | [4] 0.074

ATF7IP2 (UniProt Q5U623)
inactive: [1] 0.162 | [2] 0.01 | [3] 0.101 | [5] 0.017

ATXN7L3 isoform 2 (UniProt Q14CW9)
inactive: [1] 0.147 | [2] 0.017 | [4] -0.186 | [5] 0.15

ATP5F1B (UniProt H0YI37)
inactive: [1] 0.348 | [2] -0.272 | [4] -0.333

ASXL1 (UniProt Q8IXJ9)
inactive: [1] 0.05 | [2] -0.074 | [4] 0.079 | [5] 0.022

ATF3 (UniProt P18847)
inactive: [3] 0.071 | [4] -0.276 | [5] -0.25
